Assay results as given in PubChem BioAssay AID248 (DTP/NCI, 2004).
The list does not hold the whole screen: it is rich in T/C values a quarter to a half above the control, in often repeated tests (any T/C) and in doses without a T/C. Other doses and runs of a compound stand elsewhere. T/C gives the treated animals as a percentage of the vehicle group. Some entries give survivors of the animals treated and no T/C: the source files T/C as zero there, which appears to mark a toxic dose or a test without result, not a measured value. Some doses without a T/C left all or most animals alive at the check, yet need not have been tolerated: survival well below the control is almost never listed, so the zero probably covers shortened survival too. Counts of survivors are from the toxicity check (mostly the fifth day) where no day follows; animals may have died later. Schedules are NCI's codes, taken here to give the interval after Q, in days (D) or hours (H), and the number of doses after X. Some schedule codes hold Z or #, which are not explained here. For survival time, this PubChem deposit counts one and a half times the control or more as active, and values a quarter to a half above the control carry no call in these data; other NCI protocols may use other cut-offs.

System: L1210 leukemia ip in BDF1 mice, survival T/C
Experiment: NCI In Vivo Anticancer Drug Screen. Data for tumor model L1210 Leukemia (intraperitoneal) in B6D2F1 (BDF1) mice
Conditions: T/C endpoint: mean survival time, higher T/C = longer survival

SMILES | T/C (dose: 3.75 mg/kg/injection, schedule: Q01DX Z (ip), vehicle: saline) | survivor count (dose: 30.0 mg/kg/injection, schedule: Q01DX Z (ip), vehicle: saline) | survivor count (dose: 60.0 mg/kg/injection, schedule: Q01DX Z (ip), vehicle: saline) | survivor count (dose: 120.0 mg/kg/injection, schedule: Q01DX Z (ip), vehicle: saline) | T/C (dose: 500.0 mg/kg/injection, schedule: Q## X010 (oral), vehicle: saline) | survivor count (dose: 25.0 mg/kg/injection, schedule: Q01DX009 (ip), vehicle: acetone) | survivor count (dose: 50.0 mg/kg/injection, schedule: Q04DX003 (ip), vehicle: acetone) | survivor count (dose: 100.0 mg/kg/injection, schedule: Q01DX001 (ip), vehicle: acetone) | survivor count (dose: 200.0 mg/kg/injection, schedule: Q01DX001 (ip), vehicle: acetone) | survivor count (dose: 400.0 mg/kg/injection, schedule: Q01DX001 (ip), vehicle: acetone)
CCN=C(NCC)c1ccc(NC(=O)c2ccc(C(=O)Nc3ccc(C(=NCC)NCC)cc3)cc2)cc1 | 134 % of control | 6 of 6 | 0 of 6 | 0 of 6 | 129 % of control |  |  |  |  | 
C=C(C)C(=O)OC1CC23OC2CC(COC3O)C2OC2C2OC(=O)C(=C)C12 (stereo not given) |  |  |  |  |  | 1 of 6 | 4 of 6 | 0 of 6 | 0 of 6 | 0 of 6
